Measurements reported in patent US20130251632A1, “APOPTOSIS PET IMAGING AGENTS” (GE HEALTHCARE LIMITED, priority 2010, published 2013).
Entries after “also recorded” stand apart in the source; their conditions may differ. At least one structure is not confirmed: it was looked up by name or label, or the drawing left a doubt. Some results were stated once for a whole list of compounds, not compound by compound.

Test: Affinity for phosphatidylethanolamine, Biacore 3000 with L1 chip and captured liposomes
Format: binding
From the text: A Biacore 3000 (GE Healthcare, Uppsala) was equipped with an L1 chip. Liposomes made of POPE/POPC (20% PE) were applied for the affinity study using the capture technique recommended by the manufacturer. Each run consisted of activation of the chip surface, immobilization of liposomes, binding of peptide and wash off of both liposomes and peptide (regeneration). Similar applications can be found in Frostell-Karlsson et al [Pharm. Sciences, V.94 (1), (2005)]. Thorough washing of needle, tubing and liquid handling system with running buffer was performed after each cycle.
BIACORE software: The BIACORE control software including all method instructions was applied. A method with commands was also written in the BIACORE Method Definition Language (MDL) to have full control over pre-programmed instructions. BIACORE evaluation software was applied for analysing the sensorgrams.

[1] = Biacore, POPE/POPC liposomes (20% PE)

Question: Which “binding to phosphatidyl ethanolamine (in words)” value does the source give for `CC(C)[C@@H]1NC(=O)[C@H](Cc2ccccc2)NC(=O)[C@H]2NC(=O)[C@H](Cc3ccccc3)NC(=O)[C@@H]3CCCN3C(=O)CNC(=O)[C@H](Cc3ccccc3)NC(=O)[C@@H]3CNCCCC[C@@H](C(=O)O)NC(=O)[C@H]4NC(=O)[C@H](CC(N)=O)NC(=O)CNC(=O)[C@H]([C@@H](O)C(=O)O)NC(=O)[C@H](CSC[C@@H](NC(=O)[C@H](CCC(N)=O)NC(=O)[C@H](CCCCNC(=O)CO/N=C/c5ccc(F)cc5)NC(=O)[C@@H](N)CS[C@H]4C)C(=O)N[C@@H](CS[C@H]2C)C(=O)N3)NC1=O` [Compound 1, N-(4-Fluorobenzylidene)-aminooxyacetyl-Duramycin] here?
Answer: no significant effect on the binding affinity; also recorded: good binder

Question: What about the “ka” value [1] of the same molecule?
Answer: ~28000 M⁻¹ s⁻¹

Question: What about the “kd” value [1] of the same molecule?
Answer: ~0.0012 s⁻¹

Question: And the Kd (Biacore, POPE/POPC liposomes (20% PE), Table 2)?
Answer: ~43 nM

Question: What about the Kd (bound stated) of the same molecule?
Answer: < 100 nM
